This is an account of results in publication PMC9499959.

The target of assay [1] is NTAP-Dma1-5xGly-ubiquitin(7K→7R) (S. pombe | not stated) (UniProt Q10322). In words: affinity purification with mass spectrometry; tandem affinity purification (IgG Sepharose, TEV cleavage, calmodulin resin, EGTA elution) of NTAP-Dma1 variants from 8- to 10-L S. pombe cultures in NP-40 buffer; dma1Δ or mts3-1 dnt1Δ dma1Δ backgrounds; two-dimensional LC tandem MS.
Assay [2] concerns the target T1, NTAP-Dma1ΔRF (S. pombe) (UniProt Q10322).
T1 sequence: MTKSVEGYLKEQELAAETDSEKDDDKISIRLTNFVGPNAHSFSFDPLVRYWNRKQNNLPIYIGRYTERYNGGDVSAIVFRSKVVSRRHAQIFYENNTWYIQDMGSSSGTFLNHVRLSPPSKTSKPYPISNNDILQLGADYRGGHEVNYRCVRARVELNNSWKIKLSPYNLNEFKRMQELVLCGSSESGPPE
Described as above.

These are yes or no findings as the source states them, for the method shown. In cells and extracts the contact can be indirect. These calls come from enrichment with a bait or labelling near it, and not all partners need be listed.

B1: Tip1 (found in TAP-Dma1 purifications) (protein, UniProt P79065 1-461)
chain: MFPLGSVVEVITGERGFVRYAGEVENRKGVYVGLELLPEFAEFGKNRGVVDGREYFKTKNNEKTGIFVPFDKCKLASSISSSPSPKIDGTAASIGMGFPPMSPNLQSSIPRLTNVSSSSNLSMNTISSTALTPTEKILQKRIEDLLYERQNHQQQLEEVLATVDQLQSLVTNFNDQQDEVDELRERITLKEERIQQMRNEASQRRFEFKTTIECLEESSNRAIETYENRIAELEAQLEMYMSGKSEDDLLFSLQQERDYALNQVEILQERVDTLMKQKANSSTANEKLSHMESSSPTLTNASFESPKRGKGSNDLPENHPQRRQTLEFYEIEIEVLREKVEKLQALSDEKDFYISKLEKSLDRNDTTPVPSDEKLSNYAAEKENLVSRISELEHTIEQLTINNERDNERMSPAEFELETTQEVEENDSDSHDDEETWCEVCETNNHSLQECPTVFGSTDEA
With B1, the binding entry in assay [1] and in assay [2] was “binds” each time.
